# Test results taken from patent US20150025016A1 (COMMISSARIAT A L ENERGIE ATOMIQUE ET AUX ENERGIES …, published 2015).
# The chains behind the UniProt entries cited, without tags or fusion partners. Residues count along the entry.
# UniProt Q9Y294, residues 1-156: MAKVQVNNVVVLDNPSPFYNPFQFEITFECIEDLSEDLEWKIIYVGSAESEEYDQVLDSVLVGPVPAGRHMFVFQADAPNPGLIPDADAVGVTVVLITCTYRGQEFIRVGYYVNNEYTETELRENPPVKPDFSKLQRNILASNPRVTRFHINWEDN
# No constants are given. Whether binding was seen depends on the method and setting. Some results given as binding are weak or reduced against the parent protein; the word gives no strength. For some assays here: Sequences can lack the tags named with a protein.
# How the values were obtained:
# [1] = target: Asf1 (1-156), conserved N-terminal domain of human Asf1 (human) (UniProt Q9Y294); assay: ITC (microcalorimetry)
# [2] = target: Asf1 (1-156), conserved N-terminal domain of human Asf1 (human) (UniProt Q9Y294); assay: X-ray crystallography of the complex
# [3] = target: Asf1 (1-156), conserved N-terminal domain of human Asf1 (human) (UniProt Q9Y294); assay: crystal structure of the complex
# [4] = target: Asf1 (1-156), conserved N-terminal domain of human Asf1 (human) (UniProt Q9Y294); assay: NMR structure of the complex
Binder,binding [1],also measured
ASTERKWAELARRIAGAGGVTLNGFG [Peptide i5_Aloop],binds,
ASTERKWAELARRIRGAGGVTLDGFG [Peptide i5_D],binds,
ASTERKWAELARRIRGAGGATLNGFG [Peptide i5_loopA],binds,
ASTERKWAELARRIRGAGGRTLNGFG [Peptide i5_loopR],binds,
ASTEEKWARLARRIRGAGGVTLNGFG [Peptide i5_s3],binds,
"GAMGTLTPKEAELARRIRGAGGRTLNGFG [inhibitor peptide Asf1/H3-H4, peptide i4]",,binding [2]: binds; binding [3]: binds
"GAMGTIMPKDIQLARRIRG (The N-terminal GAMG comes from the cloning vector) [peptide i1 (fragment of histone H3, α3 helix)]",,binding [4]: binds
